# ± gives the standard deviation of the averaged measurements. This is a selection; strong and weak results do not stand in their true shares.
# How the values were obtained:
# Assay in all cases: NP40-soluble protein abundance relative to vehicle (solubility fold change) (ratio); higher = more soluble protein in presence of ATP
# [1] = target: T1, TXNL1 (UniProt O43396)
# T1 sequence (whole entry): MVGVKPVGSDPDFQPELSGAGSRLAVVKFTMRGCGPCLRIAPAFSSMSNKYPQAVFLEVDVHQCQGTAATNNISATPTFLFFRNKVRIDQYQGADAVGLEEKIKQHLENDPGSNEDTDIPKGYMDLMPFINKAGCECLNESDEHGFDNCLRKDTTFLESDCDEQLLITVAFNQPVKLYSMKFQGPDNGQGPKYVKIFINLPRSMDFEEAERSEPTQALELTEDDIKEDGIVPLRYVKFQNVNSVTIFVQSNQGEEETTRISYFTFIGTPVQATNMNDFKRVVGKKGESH
# Procedure, shortened: (§1)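 Jurkat crude lysate (Dounce-homogenised) was treated with eight concentrations from 0.1 to 10 mM for 10 min at room temperature, then 3 min at 37 °C. It was solubilised with 0.8% NP40 and benzonase (60 min, 4 °C) and ultracentrifuged, and the supernatant was TMT-labelled for LC-MS/MS. Intensities were vsn-normalised, and the value is the fold change against the NP40-processed vehicle per replicate, from three independent experiments.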
# [2] = target: T2, UniProt O00255 and related entries
# T2 sequence (whole entry): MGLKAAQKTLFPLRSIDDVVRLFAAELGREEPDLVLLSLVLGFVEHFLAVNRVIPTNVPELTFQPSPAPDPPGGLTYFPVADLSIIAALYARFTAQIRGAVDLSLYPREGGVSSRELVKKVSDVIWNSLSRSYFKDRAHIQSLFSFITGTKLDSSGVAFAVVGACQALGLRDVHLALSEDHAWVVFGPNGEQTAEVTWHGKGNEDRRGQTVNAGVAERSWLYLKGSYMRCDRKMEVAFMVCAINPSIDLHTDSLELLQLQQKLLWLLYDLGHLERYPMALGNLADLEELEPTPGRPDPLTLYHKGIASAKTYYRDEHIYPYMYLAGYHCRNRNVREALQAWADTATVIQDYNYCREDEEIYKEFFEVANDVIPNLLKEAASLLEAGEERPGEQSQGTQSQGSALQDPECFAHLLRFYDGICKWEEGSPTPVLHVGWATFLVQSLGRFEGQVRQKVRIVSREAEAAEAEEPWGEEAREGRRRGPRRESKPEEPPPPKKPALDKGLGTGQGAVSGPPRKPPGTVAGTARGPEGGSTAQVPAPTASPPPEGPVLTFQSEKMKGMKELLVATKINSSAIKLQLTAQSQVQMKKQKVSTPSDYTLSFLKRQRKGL
# Procedure, shortened: as §1
# [3] = target: T3, UniProt O00410 and related entries
# T3 sequence (whole entry): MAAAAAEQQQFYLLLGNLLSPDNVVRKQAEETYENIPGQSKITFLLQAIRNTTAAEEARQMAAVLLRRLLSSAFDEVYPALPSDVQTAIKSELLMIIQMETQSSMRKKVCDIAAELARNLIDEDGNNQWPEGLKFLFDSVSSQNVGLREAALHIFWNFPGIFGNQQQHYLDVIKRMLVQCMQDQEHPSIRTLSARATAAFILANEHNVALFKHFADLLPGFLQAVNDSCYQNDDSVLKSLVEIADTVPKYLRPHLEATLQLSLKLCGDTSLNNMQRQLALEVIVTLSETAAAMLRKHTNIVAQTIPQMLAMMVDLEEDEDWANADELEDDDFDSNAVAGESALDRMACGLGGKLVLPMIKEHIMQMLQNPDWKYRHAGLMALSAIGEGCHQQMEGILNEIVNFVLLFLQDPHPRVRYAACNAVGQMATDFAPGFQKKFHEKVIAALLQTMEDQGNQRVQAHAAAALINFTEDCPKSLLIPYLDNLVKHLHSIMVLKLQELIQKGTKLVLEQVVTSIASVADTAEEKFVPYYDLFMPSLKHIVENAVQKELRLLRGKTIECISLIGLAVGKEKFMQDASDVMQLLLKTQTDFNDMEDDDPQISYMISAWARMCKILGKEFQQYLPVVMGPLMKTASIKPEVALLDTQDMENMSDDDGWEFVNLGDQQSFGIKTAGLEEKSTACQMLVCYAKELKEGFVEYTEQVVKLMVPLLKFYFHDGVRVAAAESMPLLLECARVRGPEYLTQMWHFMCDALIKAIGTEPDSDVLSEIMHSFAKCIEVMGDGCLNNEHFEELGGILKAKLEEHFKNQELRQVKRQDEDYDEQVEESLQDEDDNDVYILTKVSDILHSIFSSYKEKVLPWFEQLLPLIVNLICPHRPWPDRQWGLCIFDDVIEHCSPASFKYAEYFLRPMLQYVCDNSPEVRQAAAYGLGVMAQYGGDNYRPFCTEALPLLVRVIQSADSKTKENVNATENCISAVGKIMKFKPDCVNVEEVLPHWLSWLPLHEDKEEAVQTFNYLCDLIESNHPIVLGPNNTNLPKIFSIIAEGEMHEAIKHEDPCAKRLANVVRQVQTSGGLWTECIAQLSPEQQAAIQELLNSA
# Procedure, shortened: as §1
# [4] = target: T4, UniProt O14920 and related entries
# T4 sequence (whole entry): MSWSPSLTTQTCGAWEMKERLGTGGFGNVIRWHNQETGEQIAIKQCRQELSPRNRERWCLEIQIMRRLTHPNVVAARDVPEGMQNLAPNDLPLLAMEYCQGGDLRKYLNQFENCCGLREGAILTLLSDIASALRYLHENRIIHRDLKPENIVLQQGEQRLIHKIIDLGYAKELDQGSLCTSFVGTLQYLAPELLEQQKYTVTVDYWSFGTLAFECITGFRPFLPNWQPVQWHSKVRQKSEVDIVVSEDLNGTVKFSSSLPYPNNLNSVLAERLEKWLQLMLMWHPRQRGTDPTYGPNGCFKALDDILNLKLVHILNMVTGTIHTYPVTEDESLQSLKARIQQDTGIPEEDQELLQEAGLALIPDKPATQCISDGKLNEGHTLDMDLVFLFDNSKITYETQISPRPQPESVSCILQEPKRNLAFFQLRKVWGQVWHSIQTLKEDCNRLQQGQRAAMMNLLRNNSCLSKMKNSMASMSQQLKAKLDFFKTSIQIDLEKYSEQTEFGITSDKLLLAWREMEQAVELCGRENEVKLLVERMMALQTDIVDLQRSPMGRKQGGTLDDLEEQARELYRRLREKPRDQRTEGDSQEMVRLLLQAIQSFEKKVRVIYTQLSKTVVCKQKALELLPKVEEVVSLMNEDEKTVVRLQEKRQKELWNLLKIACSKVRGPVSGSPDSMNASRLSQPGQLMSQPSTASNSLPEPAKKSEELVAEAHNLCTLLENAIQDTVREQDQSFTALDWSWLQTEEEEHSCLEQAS
# Procedure, shortened: as §1
# [5] = target: T5, UniProt O15091
# T5 sequence (whole entry): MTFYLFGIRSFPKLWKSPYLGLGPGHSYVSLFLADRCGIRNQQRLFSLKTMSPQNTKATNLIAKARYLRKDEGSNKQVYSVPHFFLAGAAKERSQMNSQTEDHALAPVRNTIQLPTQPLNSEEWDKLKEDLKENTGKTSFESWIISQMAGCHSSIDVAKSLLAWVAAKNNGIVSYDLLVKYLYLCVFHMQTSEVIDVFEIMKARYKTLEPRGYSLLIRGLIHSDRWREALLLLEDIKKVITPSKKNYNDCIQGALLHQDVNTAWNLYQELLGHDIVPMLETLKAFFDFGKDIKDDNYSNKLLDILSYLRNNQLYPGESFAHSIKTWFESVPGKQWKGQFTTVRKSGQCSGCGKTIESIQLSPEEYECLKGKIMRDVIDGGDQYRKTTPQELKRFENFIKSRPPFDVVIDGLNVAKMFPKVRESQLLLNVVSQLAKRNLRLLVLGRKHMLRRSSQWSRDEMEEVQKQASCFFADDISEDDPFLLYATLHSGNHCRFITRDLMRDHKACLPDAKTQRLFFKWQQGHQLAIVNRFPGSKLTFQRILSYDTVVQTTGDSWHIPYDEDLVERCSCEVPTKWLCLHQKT
# Procedure, shortened: as §1
# [6] = target: T6, UniProt O15123 and related entries
# T6 sequence (whole entry): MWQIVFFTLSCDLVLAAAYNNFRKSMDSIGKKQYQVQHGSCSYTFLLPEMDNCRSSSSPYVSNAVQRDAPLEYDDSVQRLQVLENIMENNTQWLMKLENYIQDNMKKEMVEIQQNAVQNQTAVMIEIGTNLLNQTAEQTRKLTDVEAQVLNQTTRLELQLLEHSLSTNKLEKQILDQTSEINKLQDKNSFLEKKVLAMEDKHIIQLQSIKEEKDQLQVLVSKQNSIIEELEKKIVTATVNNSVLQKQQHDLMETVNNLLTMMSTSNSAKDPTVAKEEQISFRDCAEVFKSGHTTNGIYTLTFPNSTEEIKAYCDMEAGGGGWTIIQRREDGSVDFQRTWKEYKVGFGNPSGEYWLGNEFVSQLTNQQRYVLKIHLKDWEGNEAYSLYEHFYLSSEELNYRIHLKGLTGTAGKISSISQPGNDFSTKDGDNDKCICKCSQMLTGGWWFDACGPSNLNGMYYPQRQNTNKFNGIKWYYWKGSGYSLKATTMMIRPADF
# Procedure, shortened: as §1
structure (smiles),measurement,setting,value
Nc1ncnc2c1ncn2[C@@H]1O[C@H](COP(=O)(O)OP(=O)(O)OP(=O)(O)O)[C@@H](O)[C@H]1O [adenosine triphosphate],NP40-soluble protein abundance,[1]; concentration: 1mM,1.02 ± 0.013
same,NP40-soluble protein abundance,[1]; concentration: 2mM,1.01 ± 0.027
same,NP40-soluble protein abundance,[1]; concentration: 4mM,0.996 ± 0.045
same,NP40-soluble protein abundance,[1]; concentration: 6mM,0.946 ± 0.025
same,NP40-soluble protein abundance,[1]; concentration: 8mM,0.989 ± 0.035
same,NP40-soluble protein abundance,[1]; concentration: 10mM,0.978 ± 0.035
same,NP40-soluble protein abundance,[2]; concentration: 1mM,1.09 ± 0.077
same,NP40-soluble protein abundance,[2]; concentration: 2mM,1.1 ± 0.073
same,NP40-soluble protein abundance,[2]; concentration: 4mM,1.14 ± 0.048
same,NP40-soluble protein abundance,[2]; concentration: 6mM,1.11 ± 0.13
same,NP40-soluble protein abundance,[2]; concentration: 8mM,1.2 ± 0.062
same,NP40-soluble protein abundance,[2]; concentration: 10mM,1.19 ± 0.037
same,NP40-soluble protein abundance,[3]; concentration: 1mM,0.976 ± 0.022
same,NP40-soluble protein abundance,[3]; concentration: 2mM,0.968 ± 0.025
same,NP40-soluble protein abundance,[3]; concentration: 4mM,0.9321 ± 0.0071
same,NP40-soluble protein abundance,[3]; concentration: 6mM,0.928 ± 0.04
same,NP40-soluble protein abundance,[3]; concentration: 8mM,0.935 ± 0.0095
same,NP40-soluble protein abundance,[3]; concentration: 10mM,0.93 ± 0.017
same,NP40-soluble protein abundance,[4]; concentration: 1mM,1.02 ± 0.017
same,NP40-soluble protein abundance,[4]; concentration: 2mM,1.01 ± 0.042
same,NP40-soluble protein abundance,[4]; concentration: 4mM,0.99 ± 0.013
same,NP40-soluble protein abundance,[4]; concentration: 6mM,0.967 ± 0.038
same,NP40-soluble protein abundance,[4]; concentration: 8mM,0.961 ± 0.03
same,NP40-soluble protein abundance,[4]; concentration: 10mM,0.974 ± 0.052
same,NP40-soluble protein abundance,[5]; concentration: 1mM,1.02 ± 0.012
same,NP40-soluble protein abundance,[5]; concentration: 2mM,1.02 ± 0.039
same,NP40-soluble protein abundance,[5]; concentration: 4mM,1.04 ± 0.021
same,NP40-soluble protein abundance,[5]; concentration: 6mM,0.998 ± 0.045
same,NP40-soluble protein abundance,[5]; concentration: 8mM,1.05 ± 0.028
same,NP40-soluble protein abundance,[5]; concentration: 10mM,1.05 ± 0.084
same,NP40-soluble protein abundance,[6]; concentration: 1mM,0.901 ± 0.023
same,NP40-soluble protein abundance,[6]; concentration: 2mM,0.884 ± 0.039
same,NP40-soluble protein abundance,[6]; concentration: 4mM,0.939 ± 0.04

# In another format: results already given.
structure (smiles) | measurement | setting | value
Nc1ncnc2c1ncn2[C@@H]1O[C@H](COP(=O)(O)OP(=O)(O)OP(=O)(O)O)[C@@H](O)[C@H]1O [adenosine triphosphate] | NP40-soluble protein abundance | [4]; concentration: 1mM | 1.02 ± 0.017
same | NP40-soluble protein abundance | [5]; concentration: 1mM | 1.02 ± 0.012
